Values quoted from earlier work, collected in patent publication US20090191194A1, “INHIBITION OF PROTEIN KINASE C ALPHA FOR THE TREATMENT OF CARDIOVASCULAR DISEASES” (Phenos GmbH, priority 2002, published 2009).
For at least one compound, name, drawing or mass did not settle the structure.

System: rodents with type I and type II diabetes

CN(C)C[C@@H]1CCn2cc(c3ccccc32)C2=C(C(=O)NC2=O)c2cn(c3ccccc23)CCO1 [LY333531]
proteinuria as a sign of renal damage: reduced proteinuria
